Measured values from US4292319A, “Antiphlogistic pharmaceutical compositions and method of use” (Boehringer Ingelheim GmbH, priority 1977, dated 1981).
Where two headings read alike, the source gives them in different places.

Legend:
[1] = Test for ulcerogenic effect on the stomach of the rat; assay type: in vivo, rat (Chbb:THOM); conditions: in vivo, po, 3 subsequent days, read-out: ED50-ulcer
Procedure: (§1) (1) Test for ulcerogenic effect on the stomach of the rat
(§2) The test was carried out on male and female (1:1) Chbb:THOM-rats with a body weight between 130 to 150 gm at the beginning of the study.
(§3) The test substances (non-steroidal anti-phlogistics or mixtures of these antiphlogistics with pirenzepine dihydrochloride) were administered as triturations in 1% tylose (1 ml/100 gm animal) by way of an esophageal tube once a day on three successive days.
(§4) Four hours after the last administration (i.e. on the 3rd day) the animals were killed by an over-dose of ether. The stomachs wer dissected, cut along the great curvature and washed under flowing water for subsequent macroscopic evaluation.

[2] = tested on: stomach of the rat; experiment: as above; assay type: in vivo, rat (Chbb:THOM); conditions: oral, 3 subsequent days
Procedure: as §1, §2, §3, §4

COc1ccc2cc([C@H](C)C(=O)O)ccc2c1 [F, d-2-(6-methoxy-2-naphthyl)-propionic acid]
TD50 ([1]; with A 200 mgm/kg): 7.9 mg/kg
TD50 ([1]; with A 400 mgm/kg): 10.4 mg/kg
TD50 ([1]; without A): 3.6 mg/kg
Ratio of animals with ulcers ([2]; antiphlogistic 1.25 mgm/kg + A 200 mgm/kg): 1/20
Ratio of animals with ulcers ([2]; antiphlogistic 1.25 mgm/kg + A 400 mgm/kg): 1/20
Ratio of animals with ulcers ([2]; antiphlogistic 1.25 mgm/kg, without A): 2/19
Ratio of animals with ulcers ([2]; antiphlogistic 2.5 mgm/kg + A 200 mgm/kg): 4/20
Ratio of animals with ulcers ([2]; antiphlogistic 2.5 mgm/kg + A 400 mgm/kg): 0/20
Ratio of animals with ulcers ([2]; antiphlogistic 2.5 mgm/kg, without A): 4/19
Ratio of animals with ulcers ([2]; antiphlogistic 5.0 mgm/kg + A 200 mgm/kg): 6/20
Ratio of animals with ulcers ([2]; antiphlogistic 5.0 mgm/kg + A 400 mgm/kg): 5/20
Ratio of animals with ulcers ([2]; antiphlogistic 5.0 mgm/kg, without A): 15/19
Ratio of animals with ulcers ([2]; antiphlogistic 10.0 mgm/kg + A 200 mgm/kg): 10/20
Ratio of animals with ulcers ([2]; antiphlogistic 10.0 mgm/kg + A 400 mgm/kg): 10/20
Ratio of animals with ulcers ([2]; antiphlogistic 10.0 mgm/kg, without A): 16/19
Ratio of animals with ulcers ([2]; antiphlogistic 20.0 mgm/kg + A 200 mgm/kg): 17/20
Ratio of animals with ulcers ([2]; antiphlogistic 20.0 mgm/kg + A 400 mgm/kg): 14/20
